From publication PMC7582373 (Molecules, 2020)
Some peptides are written in HELM: one residue between dots, names in brackets for other building blocks, links after the first $.

Experiment: general procedure: Fmoc solid-phase peptide synthesis; Rink amide MBHA resin; HBTU, 0.4 M NMM/DMF (on-resin bis-lactamization)
Conditions: whole synthesis; for final HPLC purity: 214 nm; for isolated yield: overall

Substance	final HPLC purity [%]	isolated yield [%]
PEPTIDE1{[ac].E.W.A.E.T.A.A.[L-ThiaLys].K.F.L.[L-ThiaLys].A.H.A.[am]}|CHEM1{[pPDA]}$PEPTIDE1,CHEM1,9:R3-1:R1|PEPTIDE1,CHEM1,13:R3-1:R2$$$V2.0	>95	~0.12
PEPTIDE1{[ac].E.W.A.E.T.A.A.[L-aMeThiaLys].K.F.L.[L-aMeThiaLys].A.H.A.[am]}|CHEM1{[pPDA]}$PEPTIDE1,CHEM1,9:R3-1:R1|PEPTIDE1,CHEM1,13:R3-1:R2$$$V2.0	>95	~1.5
